# Reference: the supplement of paper PMC8288183
# The list shows a part of the results. Many values rest on one well or one pass, so single values are uncertain.
# Target: T1, NSUN6 (UniProt Q8TEA1)
# T1 sequence: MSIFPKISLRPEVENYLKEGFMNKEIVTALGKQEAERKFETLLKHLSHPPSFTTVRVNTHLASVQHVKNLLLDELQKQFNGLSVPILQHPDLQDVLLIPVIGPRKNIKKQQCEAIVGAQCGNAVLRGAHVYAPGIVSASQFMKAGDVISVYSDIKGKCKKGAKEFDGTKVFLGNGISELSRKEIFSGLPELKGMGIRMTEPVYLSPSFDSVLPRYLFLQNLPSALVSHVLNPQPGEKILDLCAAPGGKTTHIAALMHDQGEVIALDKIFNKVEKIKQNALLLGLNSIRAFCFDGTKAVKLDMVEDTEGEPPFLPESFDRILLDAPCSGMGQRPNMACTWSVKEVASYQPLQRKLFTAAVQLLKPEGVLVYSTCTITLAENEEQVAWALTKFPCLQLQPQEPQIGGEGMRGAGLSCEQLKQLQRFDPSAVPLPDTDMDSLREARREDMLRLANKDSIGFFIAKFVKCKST
# Assay: m5C methylation level at the target C (C/(C+U) bisulfite reads) (fraction); higher = more methylation by NSUN6; extreme values may be limits of the assay
# Conditions: HEK293T (wild-type)
# Protocol: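 High-throughput mutagenesis reporter. About 140 bp oligo-pool variants of four natural Type II m5C substrates (substrate #1 chr15:91425541; #2 RAB15 3'UTR chr14:65413377; #3 SULT2A1 5'UTR chr19:48389569; #4 NAAA CDS chr4:76857361) were cloned as 3'UTR elements of psiCHECK-2 luciferase and transfected into wild-type HEK293T cells. Total RNA was taken 48 h later and m5C level was measured by targeted bisulfite sequencing as C/(C+U) reads at the m5C site (one library).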
# [1] = parent substrate: substrate #1 (main figure)
Sequence,m5C methylation level at the target C [1],m5C methylation level at the target C (parent substrate: substrate #2),m5C methylation level at the target C (parent substrate: substrate #3),m5C methylation level at the target C (parent substrate: substrate #4)
ACACUC,0.0024,0.00109,0,0.000728
GCUAUC,0.00189,0.000602,0.00112,0.00193
CCUAGG,0,0,0,0.00173
GCUAUU,0.00216,0.00471,0.000548,0.00645
GCAGAC,0,0.00796,0,0.000834
GCGGAG,0.00224,0.00298,0.00119,0
ACUUUG,0.00117,0.00166,0.00538,0
CCUUCG,0.00154,0.000846,0.00183,0.000998
GCUGCG,0.00245,0.00727,0.00218,0.00102
CCCUCA,0.00111,0,0.00122,0.0108
GCGUGA,0.0029,0.000607,0.00396,0.000851
CCAUAG,0,0,0.00527,0.000654
UCCUUA,0.00167,0,0.000657,0.027
UCCUAC,0.00119,0,0,0.00219
GCGCGG,0,0.000743,0.00146,0
ACGUAG,0.00403,0.0042,0.00102,0
UCUUGU,0,0,0.000486,0.00221
CCGAUU,0.000609,0.0141,0.000831,0
ACAGCG,0,0.000903,0.00597,0
CCAAGU,0.00109,0,0.00089,0
ACCCCC,0.00289,0,0,0
GCGUCC,0,0.00178,0.000993,0
GCACUC,0.00197,0,0,0
ACGUUU,0,0.00246,0.00554,0.00633

# Some values from the entries so far:
# For m5C methylation level at the target C (parent substrate: substrate #2), GCUAUU is entered as 0.00471
# For m5C methylation level at the target C (parent substrate: substrate #2), ACAGCG is entered as 0.000903
# For m5C methylation level at the target C (parent substrate: substrate #4), ACUUUG is entered as 0

# The listing continues:

Sequence,m5C methylation level at the target C [1],m5C methylation level at the target C (parent substrate: substrate #2),m5C methylation level at the target C (parent substrate: substrate #3),m5C methylation level at the target C (parent substrate: substrate #4)
ACAGCC,0.000663,0.00141,0,0.00741
ACGCCU,0.00124,0.00278,0,0
UCUGAG,0.000428,0.00196,0,0.00204
UCGAUA,0,0.000598,0.00442,0.0061
ACUGGG,0,0.00109,0,0
ACGCAG,0.000651,0,0,0.00077
ACAUGG,0.00256,0,0.00424,0
CCGCUC,0,0,0,0
ACUUCC,0.000889,0,0.00137,0.000977
GCUGAG,0.000634,0.00972,0.000841,0.00685
UCAUUA,0,0,0.000554,0
GCGAGC,0,0.000827,0.00116,0.0027
ACGGGA,0.0032,0.00119,0.000902,0
UCUACA,0.000792,0,0.00337,0
GCGCAG,0.00245,0.00732,0.00192,0.00115
UCUGUG,0.00332,0.00185,0.000888,0.00111
CCUCUG,0.00164,0,0.000655,0
GCACUA,0.000804,0.00149,0.0015,0
GCUUUU,0.00338,0.00284,0.00207,0
GCGUUC,0.00325,0.00158,0.00312,0.00197
ACCAAA,0,0.000845,0.00448,0
CCUAGC,0.000834,0,0.0041,0.000789
GCUAGU,0.00152,0.00677,0.00581,0.00072
ACCGGC,0.00101,0.000824,0.00105,0

Sequence,m5C methylation level at the target C [1],m5C methylation level at the target C (parent substrate: substrate #2),m5C methylation level at the target C (parent substrate: substrate #3),m5C methylation level at the target C (parent substrate: substrate #4)
CCUUAA,0.00102,0.00127,0,0
ACGACC,0.00871,0,0.00546,0
UCCGCG,0.00474,0.000994,0.00127,0.00764
UCUACC,0.00127,0.00355,0,0.000533
GCAUCC,0.00155,0.00885,0.000699,0.00749
CCGACC,0.000463,0,0.00114,0
GCCUGU,0.00108,0.000864,0.00572,0.00154
GCAUAA,0.00113,0,0.00058,0.00447
GCAGGU,0,0.00184,0.000755,0.0242
CCGUUA,0.00214,0.00362,0.000316,0.00167
GCAUAU,0,0,0.000417,0.00306
ACGCAA,0.00831,0.00461,0.000536,0.00106
ACUAAC,0,0,0,0.000811
GCACUG,0.00092,0,0.00124,0
CCGGAC,0.00114,0.001,0,0
GCGCAC,0.00116,0.00293,0.00125,0
UCCUCA,0.00136,0.00216,0,0.00175
UCAGCG,0.00063,0,0.00348,0.000819
CCCAUU,0,0.00209,0.000813,0
GCUCCG,0.00142,0.00698,0.000396,0
UCACGA,0.00696,0,0.00249,0.00146
GCACGG,0.00222,0.000918,0,0
CCAGGA,0.00139,0.00235,0.00196,0.00441
UCGCCG,0,0,0.000487,0
